In publication PMC7647119:
Construct, isoform or probe ends are uncertain for at least one entry.

Chains of the proteins cited; added tags and fusions are not shown. Chains listed by the source or under a name are the forms on record and can include a tag or linker.
OsTIF1-His (Oryza sativa), one chain, as listed by the source: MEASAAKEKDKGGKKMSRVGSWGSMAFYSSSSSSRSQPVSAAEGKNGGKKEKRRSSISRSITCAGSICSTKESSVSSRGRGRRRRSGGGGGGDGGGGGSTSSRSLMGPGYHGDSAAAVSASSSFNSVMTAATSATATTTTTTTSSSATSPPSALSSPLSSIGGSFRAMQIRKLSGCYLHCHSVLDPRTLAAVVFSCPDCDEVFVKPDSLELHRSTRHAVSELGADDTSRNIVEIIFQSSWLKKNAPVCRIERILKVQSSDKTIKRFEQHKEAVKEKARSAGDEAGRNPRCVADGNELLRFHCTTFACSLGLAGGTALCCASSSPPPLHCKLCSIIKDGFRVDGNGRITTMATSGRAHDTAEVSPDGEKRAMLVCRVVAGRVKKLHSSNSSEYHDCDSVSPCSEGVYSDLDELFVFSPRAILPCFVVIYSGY

Legend:
[1] = tested on: OsTIF1-His (Oryza sativa); assay: EMSA; conditions: LightShift Chemiluminescent EMSA Kit per manufacturer; pH and temperature not stated; recombinant protein; protein details: pET32a vector tags (His); label: biotin 3' end
[2] = biological target: T1, MADS29-His (Oryza sativa) (UniProt Q6H711); assay: EMSA; conditions: LightShift Chemiluminescent EMSA Kit per manufacturer; pH and temperature not stated; recombinant protein; residues 1-260; protein details: pET32a vector tags (His); label: biotin 3' end; probe letters rebuilt from the primers and the genome
T1 sequence: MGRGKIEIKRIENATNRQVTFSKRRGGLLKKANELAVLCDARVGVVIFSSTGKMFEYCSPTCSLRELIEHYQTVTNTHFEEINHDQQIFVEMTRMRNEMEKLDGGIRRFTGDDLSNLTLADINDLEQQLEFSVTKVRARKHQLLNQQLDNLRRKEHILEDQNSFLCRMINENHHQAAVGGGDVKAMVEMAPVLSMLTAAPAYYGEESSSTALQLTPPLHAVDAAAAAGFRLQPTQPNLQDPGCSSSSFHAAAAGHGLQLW

Sequence | binding result [1] | binding result [2]
ACTTGGATTTCATCACTAGTATGCGTCGAG (double strand) [POsTAA1 -1748 probe] | binds | 
GTGAAGCCTGTAGTACACTAGTACCTCTGT (double strand) [POsTAA1 -377 probe] | binds | 
TCCTACTAATCATCGATGCTTCATCAAAGC (double strand) [POsTAA1 -2349 probe] | binds | 
TGTGTTGTGATAGCTCATAACTAATTATAGCTAGTTAGCATATTATCCTTTTAATAACAA (double strand) [POsAsp1 -1217 CArG probe] |  | binds
